# Source: the supplement of paper PMC10849652
# Sequences of proteins named here, by UniProt entry; tags and fusion partners are left off. A change or cut given only in a name is not applied to a line headed by its entry.
# UniProt Q659A1: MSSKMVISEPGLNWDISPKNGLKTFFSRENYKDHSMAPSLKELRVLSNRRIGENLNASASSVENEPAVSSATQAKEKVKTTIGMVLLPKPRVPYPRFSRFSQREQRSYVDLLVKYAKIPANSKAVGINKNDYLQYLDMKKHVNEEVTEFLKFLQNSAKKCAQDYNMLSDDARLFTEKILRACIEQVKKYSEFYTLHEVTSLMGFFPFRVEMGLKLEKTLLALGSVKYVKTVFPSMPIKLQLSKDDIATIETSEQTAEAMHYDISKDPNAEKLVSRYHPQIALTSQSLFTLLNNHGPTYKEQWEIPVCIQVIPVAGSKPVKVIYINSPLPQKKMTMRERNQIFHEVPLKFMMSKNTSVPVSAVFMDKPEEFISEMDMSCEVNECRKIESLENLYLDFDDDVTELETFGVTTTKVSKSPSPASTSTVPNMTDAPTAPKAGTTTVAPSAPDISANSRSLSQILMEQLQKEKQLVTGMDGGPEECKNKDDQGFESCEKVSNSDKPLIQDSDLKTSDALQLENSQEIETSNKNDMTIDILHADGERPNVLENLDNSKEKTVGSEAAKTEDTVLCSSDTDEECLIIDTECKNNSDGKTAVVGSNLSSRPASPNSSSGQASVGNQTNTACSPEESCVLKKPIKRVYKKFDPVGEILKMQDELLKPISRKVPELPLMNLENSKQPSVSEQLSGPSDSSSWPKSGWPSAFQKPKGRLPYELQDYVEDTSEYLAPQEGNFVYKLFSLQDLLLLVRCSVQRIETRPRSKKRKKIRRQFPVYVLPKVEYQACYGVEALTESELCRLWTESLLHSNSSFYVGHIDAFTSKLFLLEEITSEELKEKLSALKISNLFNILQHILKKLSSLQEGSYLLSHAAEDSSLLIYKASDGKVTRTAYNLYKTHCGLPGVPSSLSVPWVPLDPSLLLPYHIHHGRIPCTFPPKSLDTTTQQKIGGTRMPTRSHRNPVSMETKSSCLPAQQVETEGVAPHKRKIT
# UniProt P22692: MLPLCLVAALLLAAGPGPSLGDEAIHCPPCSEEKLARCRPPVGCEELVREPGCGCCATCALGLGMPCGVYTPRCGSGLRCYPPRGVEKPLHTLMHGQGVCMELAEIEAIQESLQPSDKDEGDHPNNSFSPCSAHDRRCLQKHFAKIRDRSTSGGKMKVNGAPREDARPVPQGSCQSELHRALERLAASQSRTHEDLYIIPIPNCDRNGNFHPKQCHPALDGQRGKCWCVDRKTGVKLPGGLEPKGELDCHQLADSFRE
# UniProt O43837: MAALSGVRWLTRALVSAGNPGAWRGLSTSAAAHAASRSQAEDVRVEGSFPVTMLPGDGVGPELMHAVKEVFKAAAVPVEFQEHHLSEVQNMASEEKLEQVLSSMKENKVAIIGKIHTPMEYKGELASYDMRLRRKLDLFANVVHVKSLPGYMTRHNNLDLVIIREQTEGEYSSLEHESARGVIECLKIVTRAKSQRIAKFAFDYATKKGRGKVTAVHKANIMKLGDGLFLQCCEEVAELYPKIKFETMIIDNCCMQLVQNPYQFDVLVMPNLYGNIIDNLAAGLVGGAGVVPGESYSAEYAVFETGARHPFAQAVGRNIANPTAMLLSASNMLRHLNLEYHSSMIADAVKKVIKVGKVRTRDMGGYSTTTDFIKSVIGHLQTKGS
# UniProt P05362: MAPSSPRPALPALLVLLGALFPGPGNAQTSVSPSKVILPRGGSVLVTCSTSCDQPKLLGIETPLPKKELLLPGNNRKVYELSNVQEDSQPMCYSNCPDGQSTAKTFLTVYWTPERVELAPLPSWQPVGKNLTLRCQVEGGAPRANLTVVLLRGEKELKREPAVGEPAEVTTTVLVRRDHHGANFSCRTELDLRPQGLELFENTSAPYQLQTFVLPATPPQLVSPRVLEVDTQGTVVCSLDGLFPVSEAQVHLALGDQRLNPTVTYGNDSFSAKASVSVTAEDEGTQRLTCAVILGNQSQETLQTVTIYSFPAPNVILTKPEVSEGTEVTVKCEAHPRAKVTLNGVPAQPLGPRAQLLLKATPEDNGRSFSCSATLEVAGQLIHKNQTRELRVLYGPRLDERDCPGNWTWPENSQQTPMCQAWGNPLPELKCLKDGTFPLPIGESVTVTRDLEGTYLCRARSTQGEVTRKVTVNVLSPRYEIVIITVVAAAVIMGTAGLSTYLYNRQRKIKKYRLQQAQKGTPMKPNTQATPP
# UniProt O60921: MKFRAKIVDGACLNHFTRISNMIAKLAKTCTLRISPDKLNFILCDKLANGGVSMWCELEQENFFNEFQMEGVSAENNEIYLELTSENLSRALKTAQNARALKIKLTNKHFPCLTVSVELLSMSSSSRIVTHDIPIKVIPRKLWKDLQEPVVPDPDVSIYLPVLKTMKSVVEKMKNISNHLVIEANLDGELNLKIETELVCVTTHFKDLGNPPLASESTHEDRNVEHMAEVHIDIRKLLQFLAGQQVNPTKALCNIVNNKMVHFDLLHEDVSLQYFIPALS
# UniProt Q5T440: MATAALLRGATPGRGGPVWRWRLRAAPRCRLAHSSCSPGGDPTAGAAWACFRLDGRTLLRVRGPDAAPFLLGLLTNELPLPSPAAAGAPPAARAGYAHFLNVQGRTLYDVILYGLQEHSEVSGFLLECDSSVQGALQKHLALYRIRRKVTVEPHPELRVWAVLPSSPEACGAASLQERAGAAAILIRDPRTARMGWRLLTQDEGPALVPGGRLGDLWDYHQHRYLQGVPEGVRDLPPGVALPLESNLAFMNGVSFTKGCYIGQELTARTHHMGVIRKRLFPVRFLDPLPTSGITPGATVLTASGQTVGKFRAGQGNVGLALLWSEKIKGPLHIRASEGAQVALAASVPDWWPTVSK
# UniProt Q9Y2F5: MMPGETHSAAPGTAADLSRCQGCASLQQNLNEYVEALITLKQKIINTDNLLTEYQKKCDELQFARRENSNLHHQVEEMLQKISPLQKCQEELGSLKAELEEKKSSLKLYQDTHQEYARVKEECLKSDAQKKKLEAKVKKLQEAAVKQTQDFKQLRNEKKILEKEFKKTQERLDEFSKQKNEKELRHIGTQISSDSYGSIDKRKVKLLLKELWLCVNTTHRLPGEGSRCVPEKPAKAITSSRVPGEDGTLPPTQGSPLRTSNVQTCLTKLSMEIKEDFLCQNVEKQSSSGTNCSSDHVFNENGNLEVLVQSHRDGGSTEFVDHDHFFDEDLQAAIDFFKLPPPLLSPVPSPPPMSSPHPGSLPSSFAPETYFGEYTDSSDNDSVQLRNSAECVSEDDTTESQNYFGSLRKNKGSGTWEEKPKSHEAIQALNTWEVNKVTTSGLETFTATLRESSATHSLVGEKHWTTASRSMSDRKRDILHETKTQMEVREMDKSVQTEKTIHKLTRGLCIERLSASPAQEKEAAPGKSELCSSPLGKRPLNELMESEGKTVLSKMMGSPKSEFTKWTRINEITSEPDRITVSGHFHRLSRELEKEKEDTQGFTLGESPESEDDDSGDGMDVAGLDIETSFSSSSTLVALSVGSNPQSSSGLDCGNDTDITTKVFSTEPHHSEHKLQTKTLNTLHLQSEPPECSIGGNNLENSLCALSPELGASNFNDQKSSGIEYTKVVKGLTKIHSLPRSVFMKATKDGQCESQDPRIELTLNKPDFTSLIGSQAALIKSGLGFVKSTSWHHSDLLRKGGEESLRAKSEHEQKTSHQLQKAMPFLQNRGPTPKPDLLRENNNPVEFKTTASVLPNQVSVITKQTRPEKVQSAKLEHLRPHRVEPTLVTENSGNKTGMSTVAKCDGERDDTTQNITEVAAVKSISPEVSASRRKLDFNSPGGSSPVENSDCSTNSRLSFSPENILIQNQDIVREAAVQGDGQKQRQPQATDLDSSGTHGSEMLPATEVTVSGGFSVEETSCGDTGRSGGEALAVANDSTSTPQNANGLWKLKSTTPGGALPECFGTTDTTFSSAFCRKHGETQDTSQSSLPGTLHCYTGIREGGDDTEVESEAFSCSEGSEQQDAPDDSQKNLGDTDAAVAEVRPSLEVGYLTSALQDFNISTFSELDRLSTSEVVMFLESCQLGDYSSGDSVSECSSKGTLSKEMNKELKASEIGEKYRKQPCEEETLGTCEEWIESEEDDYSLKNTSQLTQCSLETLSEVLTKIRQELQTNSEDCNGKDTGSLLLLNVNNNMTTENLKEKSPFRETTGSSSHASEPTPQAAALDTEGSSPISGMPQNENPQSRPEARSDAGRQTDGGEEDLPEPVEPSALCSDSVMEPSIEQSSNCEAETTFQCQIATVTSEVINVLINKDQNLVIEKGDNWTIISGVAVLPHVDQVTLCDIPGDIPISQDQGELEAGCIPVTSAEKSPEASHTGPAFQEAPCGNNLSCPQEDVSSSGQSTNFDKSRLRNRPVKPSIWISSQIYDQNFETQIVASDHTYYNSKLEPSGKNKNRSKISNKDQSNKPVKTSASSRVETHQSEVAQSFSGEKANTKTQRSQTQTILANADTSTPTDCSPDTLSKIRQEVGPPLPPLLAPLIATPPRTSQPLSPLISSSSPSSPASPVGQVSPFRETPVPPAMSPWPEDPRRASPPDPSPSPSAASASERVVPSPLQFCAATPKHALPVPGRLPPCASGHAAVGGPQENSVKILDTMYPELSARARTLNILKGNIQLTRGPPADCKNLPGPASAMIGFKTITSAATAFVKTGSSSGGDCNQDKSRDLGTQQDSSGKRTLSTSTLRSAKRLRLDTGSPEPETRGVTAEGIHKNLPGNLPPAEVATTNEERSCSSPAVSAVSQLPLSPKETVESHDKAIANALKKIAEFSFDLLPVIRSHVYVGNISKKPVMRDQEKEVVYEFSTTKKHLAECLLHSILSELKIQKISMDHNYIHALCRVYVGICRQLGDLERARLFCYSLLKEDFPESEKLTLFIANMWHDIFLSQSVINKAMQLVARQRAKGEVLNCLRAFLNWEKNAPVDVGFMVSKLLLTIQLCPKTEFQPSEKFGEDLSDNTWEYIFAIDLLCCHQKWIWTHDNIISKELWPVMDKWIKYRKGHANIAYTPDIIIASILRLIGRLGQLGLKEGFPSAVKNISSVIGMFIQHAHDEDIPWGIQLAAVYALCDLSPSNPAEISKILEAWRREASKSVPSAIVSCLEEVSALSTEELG
# UniProt P78318: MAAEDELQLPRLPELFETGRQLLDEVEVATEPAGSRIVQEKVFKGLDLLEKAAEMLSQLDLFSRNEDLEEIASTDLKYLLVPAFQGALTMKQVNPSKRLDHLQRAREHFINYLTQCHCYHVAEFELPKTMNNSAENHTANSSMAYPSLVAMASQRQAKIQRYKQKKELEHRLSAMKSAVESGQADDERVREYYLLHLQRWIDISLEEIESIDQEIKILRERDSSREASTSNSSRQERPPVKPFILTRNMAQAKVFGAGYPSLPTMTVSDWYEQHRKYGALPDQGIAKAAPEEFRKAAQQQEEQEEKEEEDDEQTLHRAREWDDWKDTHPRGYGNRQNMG
# UniProt P61604, whole entry, looked up: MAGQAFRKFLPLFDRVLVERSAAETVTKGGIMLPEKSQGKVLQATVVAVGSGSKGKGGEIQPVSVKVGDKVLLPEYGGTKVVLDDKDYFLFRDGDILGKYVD
# UniProt O43464: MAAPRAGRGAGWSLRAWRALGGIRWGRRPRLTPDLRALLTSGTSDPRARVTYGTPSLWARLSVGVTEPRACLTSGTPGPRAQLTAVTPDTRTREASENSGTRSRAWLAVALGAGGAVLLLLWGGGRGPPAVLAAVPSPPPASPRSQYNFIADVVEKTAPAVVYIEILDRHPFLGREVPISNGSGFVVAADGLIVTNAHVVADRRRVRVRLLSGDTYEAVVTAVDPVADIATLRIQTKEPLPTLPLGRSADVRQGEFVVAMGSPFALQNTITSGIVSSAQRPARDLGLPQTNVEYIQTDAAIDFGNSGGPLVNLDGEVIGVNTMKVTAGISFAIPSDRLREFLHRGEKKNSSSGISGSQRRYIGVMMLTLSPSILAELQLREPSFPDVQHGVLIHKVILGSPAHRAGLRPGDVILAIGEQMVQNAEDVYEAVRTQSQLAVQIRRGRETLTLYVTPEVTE
# UniProt Q13422: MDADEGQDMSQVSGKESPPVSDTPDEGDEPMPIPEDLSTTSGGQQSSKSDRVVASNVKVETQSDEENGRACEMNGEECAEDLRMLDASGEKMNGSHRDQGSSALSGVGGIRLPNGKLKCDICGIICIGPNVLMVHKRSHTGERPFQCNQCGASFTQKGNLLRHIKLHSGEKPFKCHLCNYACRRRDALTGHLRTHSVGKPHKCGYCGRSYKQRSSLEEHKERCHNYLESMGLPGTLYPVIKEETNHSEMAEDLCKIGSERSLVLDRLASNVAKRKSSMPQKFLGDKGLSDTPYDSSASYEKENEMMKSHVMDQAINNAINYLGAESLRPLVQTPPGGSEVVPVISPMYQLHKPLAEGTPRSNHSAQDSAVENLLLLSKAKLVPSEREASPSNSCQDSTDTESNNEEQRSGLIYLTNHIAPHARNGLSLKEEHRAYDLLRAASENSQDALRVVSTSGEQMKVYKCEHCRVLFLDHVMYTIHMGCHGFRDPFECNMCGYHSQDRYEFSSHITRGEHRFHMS
# This is one part of the list.
# Compound: Cn1cncc1[C@@](N)(c1ccc(Cl)cc1)c1ccc2c(c1)c(-c1cccc(Cl)c1)cc(=O)n2C [tipifarnib]
# Experiment: log2 fold change, soluble protein after heating vs DMSO (PISA); higher = thermal stabilisation; K562 lysate, 10 uM; active = over 0.2 and 3.5 SD of the protein, either way, in both replicates (recomputed)
# Summary of the method: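 Log-two fold change in thermal stability relative to solvent controls is reported from duplicates. For each sample, crude K562 extract from dounce-homogenised pellets in PBS pH 7.4 with 1 mM MgCl2, at 1 mg/mL protein, was treated with 10 μM compound for 30 min. Aliquots heated for 3 min across 48°C-58°C were pooled, brought to 0.5% NP-40 at 4°C and cleared at 21,000xg for 90 min. The supernatant was quantified by TMTpro 16plex LC-MS/MS with channel sums equalised.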
row,Target,log2 fold change
1,ICE2 (UniProt Q659A1),inactive: -0.043
2,ICMT (UniProt O60725),inactive: -0.058
3,IGFBP4 (UniProt P22692),inactive: 0.119
4,INF2 (UniProt Q27J81),inactive: -0.079
5,IMPDH2 (UniProt H0Y4R1),inactive: -0.09
6,IDH3B (UniProt O43837),inactive: 0.041
7,IGSF3 (UniProt O75054),inactive: 0.087
8,ICAM1 (UniProt P05362),inactive: -0.033
9,INPPL1 (UniProt O15357),inactive: -0.026
10,HSPA8 (UniProt E9PK54),inactive: -0.01
11,HUS1 (UniProt O60921),inactive: -0.011
12,IARS2 (UniProt Q9NSE4),inactive: 0.006
13,IBA57 (UniProt Q5T440),inactive: -0.014
14,ING3 (UniProt Q9NXR8),inactive: 0.029
15,ICE1 (UniProt Q9Y2F5),inactive: -0.018
16,IGBP1 (UniProt P78318),inactive: -0.021
17,IFT80 isoform 3 (UniProt Q9P2H3),inactive: -0.023
18,HSPE1 (UniProt P61604),inactive: 0.019
19,IGF2R (UniProt P11717),inactive: 0.004
20,HTRA2 (UniProt O43464),inactive: 0.009
21,INPP1 (UniProt P49441),inactive: 0.097
22,IKZF1 (UniProt Q13422),inactive: 0.066
23,INO80E (UniProt Q8NBZ0),inactive: -0.043
24,INPP4A (UniProt Q96PE3),inactive: 0.03

# In a second layout: entries from further up.
row	Target	log2 fold change
9	INPPL1 (UniProt O15357)	inactive: -0.026
17	IFT80 isoform 3 (UniProt Q9P2H3)	inactive: -0.023
